Literature values in patent US10787446B2 (GENENTECH, INC., priority 2015, dated 2020).

Conditions: administered topically (Lidoderm patch); cited from earlier work

CCN(CC)CC(=O)Nc1c(C)cccc1C [lidocaine]
plasma concentrations: about 1 μM
